No constants are given. Whether binding was seen depends on the method and setting. Binding seen in cells or lysates may run through a third protein. These calls come from enrichment with a bait or labelling near it, and not all partners need be listed. Tags and fused reporters may be left off the sequences shown.
T1: Sss1p tagged with the HA-epitope (S. cerevisiae (expressed in yeast strain KRY739)) (UniProt P35179)
T1 sequence: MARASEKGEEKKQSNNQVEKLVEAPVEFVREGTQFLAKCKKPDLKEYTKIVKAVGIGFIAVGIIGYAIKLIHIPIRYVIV


Target: T1, Sss1p tagged with the HA-epitope (S. cerevisiae (expressed in yeast strain KRY739))
Assay: affinity purification with mass spectrometry; microsomes (7,500 eq) of the SSS1-HA strain lysed in 2.5% digitonin buffer (50 mM HEPES-KOH pH 7.4, 400 mM potassium acetate, 8 mM magnesium acetate), ultracentrifuged to remove debris and ribosomes, diluted to 1% digitonin, bound to monoclonal anti-HA agarose overnight at 4°C, eluted with glycine-HCl pH 2.5; bands from SDS-PAGE identified by mass spectrometry; done with and without phosphatase inhibitors

Row | binding | Binder
1 | binds | Sec71p (protein, UniProt P33754 1-206) MSEFNETKFSNNGTFFETEEPIVETKSISVYTPLIYVFILVVSLVMFASSYRKKQAKKISEQPSIFDENDAHDLYFQIKEMSENEKIHEKVLKAALLNRGAESVRRSLKLKELAPQINLLYKNGSIGEDYWKRFETEVKLIELEFKDTLQEAERLQPGWVQLFVMVCKEICFNQALSRRYQSILKRKEVCIKEWELKINNDGRLVN
2 | binds | Sec72p (protein, UniProt P39742 1-193) MVTLEYNANSKLITASDAVVALSTETNIDQINVLTTSLIGETNPNFTPQPNEALSKMIKGLFESGMKNLQQKKLNEALKNVSLAIEMAQRKRAPWEAFAIQLPELHFMLRSKIDLCLILGKHLEALQDLDFLLGTGLIQPDVFVRKADCLLKLRQWEEARATCERGLALAPEDMKLRALLIETARNLAEYNGE

The next lines start with the binder.

Row | Binder | binding
3 | Sec61p (protein, UniProt P32915 1-480) MSSNRVLDLFKPFESFLPEVIAPERKVPYNQKLIWTGVSLLIFLILGQIPLYGIVSSETSDPLYWLRAMLASNRGTLLELGVSPIITSSMIFQFLQGTQLLQIRPESKQDRELFQIAQKVCAIILILGQALVVVMTGNYGAPSDLGLPICLLLIFQLMFASLIVMLLDELLSKGYGLGSGISLFTATNIAEQIFWRAFAPTTVNSGRGKEFEGAVIAFFHLLAVRKDKKRALVEAFYRTNLPNMFQVLMTVAIFLFVLYLQGFRYELPIRSTKVRGQIGIYPIKLFYTSNTPIMLQSALTSNIFLISQILFQKYPTNPLIRLIGVWGIRPGTQGPQMALSGLAYYIQPLMSLSEALLDPIKTIVYITFVLGSCAVFSKTWIEISGTSPRDIAKQFKDQGMVINGKRETSIYRELKKIIPTAAAFGGATIGALSVGSDLLGTLGSGASILMATTTIYGYYEAAAKEGGFTKNLVPGFSDLM | binds
4 | Sec63p (protein, UniProt P14906 1-663) MPTNYEYDEASETWPSFILTGLLMVVGPMTLLQIYQIFFGANAEDGNSGKSKEFNEEVFKNLNEEYTSDEIKQFRRKFDKNSNKKSKIWSRRNIIIIVGWILVAILLQRINSNDAIKDAATKLFDPYEILGISTSASDRDIKSAYRKLSVKFHPDKLAKGLTPDEKSVMEETYVQITKAYESLTDELVRQNYLKYGHPDGPQSTSHGIALPRFLVDGSASPLLVVCYVALLGLILPYFVSRWWARTQSYTKKGIHNVTASNFVSNLVNYKPSEIVTTDLILHWLSFAHEFKQFFPDLQPTDFEKLLQDHINRRDSGKLNNAKFRIVAKCHSLLHGLLDIACGFRNLDIALGAINTFKCIVQAVPLTPNCQILQLPNVDKEHFITKTGDIHTLGKLFTLEDAKIGEVLGIKDQAKLNETLRVASHIPNLKIIKADFLVPGENQVTPSSTPYISLKVLVRSAKQPLIPTSLIPEENLTEPQDFESQRDPFAMMSKQPLVPYSFAPFFPTKRRGSWCCLVSSQKDGKILQTPIIIEKLSYKNLNDDKDFFDKRIKMDLTKHEKFDINDWEIGTIKIPLGQPAPETVGDFFFRVIVKSTDYFTTDLDITMNMKVRDSPAVEQVEVYSEEDDEYSTDDDETESDDESDASDYTDIDTDTEAEDDESPE | binds

Source: PMC3541991
